{"source": "PubChem BioAssay AID504774 (Drosophila RNAi Screening Center, 2011)", "assay": "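Fly genes whose loss alters survival after alkylation damage to DNA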 (primary screen)", "system": "Drosophila Kc167 cells", "knock-down reagent": "long dsRNA against Drosophila genes, about 0.25 µg dsRNA per well", "time to read-out": "about 6 days: 3 days knock-down, then 3 days with or without MMS", "treatment": "methyl methanesulphonate 0.004% (w/v) for 3 days after knock-down", "measurement": "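Viability in wells given MMS, read as ATP luminescence, normalised by quantiles plate by plate and averaged across replicates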", "direction": "mean viability with MMS and viability with MMS: higher = more surviving cells after MMS", "note": "The screen tested about 23,000 reagents; this is a random part of those that have a named target and a result. 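Values are quantile-normalised luminescence on an arbitrary scale; higher means more cells surviving MMS.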 The numbers tell different reagents against one gene apart. Names joined by + are all predicted targets of the reagent. Further read-outs or replicates are left out here. No sequences are given here."}
{"gene knocked down":"Frmd5","dsRNA no.":1,"mean viability with MMS":3.58e6,"viability with MMS, replicate 1":3.98e6}
{"gene knocked down":"CG42824 + CG42823","dsRNA no.":1,"mean viability with MMS":3.48e6,"viability with MMS, replicate 1":4.06e6}
{"gene knocked down":"CG13230","dsRNA no.":1,"mean viability with MMS":3.48e6,"viability with MMS, replicate 1":3.86e6}
{"gene knocked down":"gfzf","dsRNA no.":1,"mean viability with MMS":3.16e6,"viability with MMS, replicate 1":3.66e6}
{"gene knocked down":"gfzf","dsRNA no.":2,"mean viability with MMS":2.96e6,"viability with MMS, replicate 1":3.78e6}
{"gene knocked down":"Tsr1","dsRNA no.":1,"mean viability with MMS":3.35e6,"viability with MMS, replicate 1":3.80e6}
{"gene knocked down":"CG3557","dsRNA no.":1,"mean viability with MMS":3.63e6,"viability with MMS, replicate 1":4.23e6}
{"gene knocked down":"CG6380","dsRNA no.":1,"mean viability with MMS":3.56e6,"viability with MMS, replicate 1":3.98e6}
{"gene knocked down":"CG4362","dsRNA no.":1,"mean viability with MMS":3.71e6,"viability with MMS, replicate 1":4.30e6}
{"gene knocked down":"Nep4","dsRNA no.":1,"mean viability with MMS":3.61e6,"viability with MMS, replicate 1":4.06e6}
{"gene knocked down":"CG5391","dsRNA no.":1,"mean viability with MMS":3.54e6,"viability with MMS, replicate 1":4.22e6}
{"gene knocked down":"N","dsRNA no.":1,"mean viability with MMS":3.57e6,"viability with MMS, replicate 1":4.08e6}
{"gene knocked down":"CG8292","dsRNA no.":1,"mean viability with MMS":3.75e6,"viability with MMS, replicate 1":4.01e6}
{"gene knocked down":"Ctns","dsRNA no.":1,"mean viability with MMS":3.50e6,"viability with MMS, replicate 1":3.93e6}
{"gene knocked down":"Atf6","dsRNA no.":1,"mean viability with MMS":3.54e6,"viability with MMS, replicate 1":3.99e6}
{"gene knocked down":"Atf6","dsRNA no.":2,"mean viability with MMS":3.71e6,"viability with MMS, replicate 1":4.21e6}
{"gene knocked down":"CG42713","dsRNA no.":1,"mean viability with MMS":3.54e6,"viability with MMS, replicate 1":3.96e6}
{"gene knocked down":"CG7857","dsRNA no.":1,"mean viability with MMS":3.46e6,"viability with MMS, replicate 1":3.85e6}
{"gene knocked down":"CG42562","dsRNA no.":1,"mean viability with MMS":3.58e6,"viability with MMS, replicate 1":4.20e6}
{"gene knocked down":"CG3106","dsRNA no.":1,"mean viability with MMS":3.22e6,"viability with MMS, replicate 1":4.22e6}
{"gene knocked down":"Galt","dsRNA no.":1,"mean viability with MMS":3.39e6,"viability with MMS, replicate 1":3.88e6}
{"gene knocked down":"sofe","dsRNA no.":1,"mean viability with MMS":3.51e6,"viability with MMS, replicate 1":3.83e6}

Records above whose gene name starts with G or g (3):
{"gene knocked down":"gfzf","dsRNA no.":1,"mean viability with MMS":3.16e6,"viability with MMS, replicate 1":3.66e6}
{"gene knocked down":"gfzf","dsRNA no.":2,"mean viability with MMS":2.96e6,"viability with MMS, replicate 1":3.78e6}
{"gene knocked down":"Galt","dsRNA no.":1,"mean viability with MMS":3.39e6,"viability with MMS, replicate 1":3.88e6}

More reagents follow:
{"gene knocked down":"Hmgcr","dsRNA no.":1,"mean viability with MMS":3.40e6,"viability with MMS, replicate 1":3.83e6}
{"gene knocked down":"Rsph9","dsRNA no.":1,"mean viability with MMS":3.59e6,"viability with MMS, replicate 1":4.07e6}
{"gene knocked down":"CG1307","dsRNA no.":1,"mean viability with MMS":3.67e6,"viability with MMS, replicate 1":4.09e6}
{"gene knocked down":"rgn","dsRNA no.":1,"mean viability with MMS":3.37e6,"viability with MMS, replicate 1":3.84e6}
{"gene knocked down":"CG14650","dsRNA no.":1,"mean viability with MMS":3.52e6,"viability with MMS, replicate 1":3.97e6}
{"gene knocked down":"B-H1","dsRNA no.":1,"mean viability with MMS":3.11e6,"viability with MMS, replicate 1":3.54e6}
{"gene knocked down":"B-H1","dsRNA no.":2,"mean viability with MMS":3.74e6,"viability with MMS, replicate 1":4.17e6}
{"gene knocked down":"CG3156","dsRNA no.":1,"mean viability with MMS":3.46e6,"viability with MMS, replicate 1":3.88e6}
{"gene knocked down":"CG8260","dsRNA no.":1,"mean viability with MMS":3.52e6,"viability with MMS, replicate 1":3.94e6}
{"gene knocked down":"CG11723","dsRNA no.":1,"mean viability with MMS":3.38e6,"viability with MMS, replicate 1":3.76e6}
{"gene knocked down":"Cpsf5","dsRNA no.":1,"mean viability with MMS":3.31e6,"viability with MMS, replicate 1":3.76e6}
{"gene knocked down":"GluRIIA","dsRNA no.":1,"mean viability with MMS":3.56e6,"viability with MMS, replicate 1":3.98e6}
{"gene knocked down":"Pvf3","dsRNA no.":1,"mean viability with MMS":3.50e6,"viability with MMS, replicate 1":3.95e6}
{"gene knocked down":"Pvf3","dsRNA no.":2,"mean viability with MMS":3.69e6,"viability with MMS, replicate 1":4.24e6}
{"gene knocked down":"Pvf3","dsRNA no.":3,"mean viability with MMS":3.48e6,"viability with MMS, replicate 1":3.91e6}
{"gene knocked down":"Pvf3","dsRNA no.":4,"mean viability with MMS":3.52e6,"viability with MMS, replicate 1":4.03e6}
